The source of these data is the supplement of paper PMC7125110.

± gives the standard error. The uncertainty is large for many entries. Bounds are passed on as bounds.

The chains are these.
B1: glmS ribozyme (parent)
chain: AUAAAAGCGCCAGAACUACAGAAAUGUAGUUGACGAGGAGGAGGUUUAUCGAAUUUUCGGCGGAUGCCUCCAAA

Variants of B1 are the subject of the first data set. The data set is described as follows: self-cleavage kobs at 40 uM GlcN6P; higher = faster cleavage; RNA array. Conditions: with glucosamine-6-phosphate. In outline:
(§1)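 Glucosamine-6-phosphate, from 40 μM to 10 mM in HEPES/KCl/Mg(OAc)2 buffer, was flowed over sequenced MiSeq chips carrying barcoded ribozyme variants transcribed in situ by E. coli RNA polymerase. A hybridised Cy3 probe tracked the variants at 37 °C as tiles were imaged over ~14 h. kobs, kcat and KM were obtained by fitting normalised per-tile medians to exponential decays and then applying weighted Michaelis–Menten fits across concentrations.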
With C50G A53G, the “self-cleavage kobs at 40 uM GlcN6P” value was determined as 0.000932 ± 0.00083 s⁻¹. For the variant C50G A53U, the “self-cleavage kobs at 40 uM GlcN6P” value turned out to be 3.87e-05 ± 2.6e-05 s⁻¹.

Take G44U U55A: the “self-cleavage kobs at 40 uM GlcN6P” value came out at 2.12e-05 ± 1.9e-05 s⁻¹. Take U57G A64U U69G: the “self-cleavage kobs at 40 uM GlcN6P” value was 2.83e-05 ± 1.9e-05 s⁻¹. In the case of C50U A53U U69G, the “self-cleavage kobs at 40 uM GlcN6P” value is 2.27e-05 ± 2.2e-05 s⁻¹.

With A52G C71A, the “self-cleavage kobs at 40 uM GlcN6P” value came out at 2.53e-05 ± 1.7e-05 s⁻¹. The same measure, in the same setting: with A52C U57A C67G U69A the figure was 2.66e-05 ± 2.1e-05 s⁻¹; with U46C U56C, 3.65e-05 ± 2e-05 s⁻¹; with A52G C70U C71G, 2.66e-05 ± 2e-05 s⁻¹. Turning to U57G C58G, the “self-cleavage kobs at 40 uM GlcN6P” value stood at 2.05e-05 ± 1.8e-05 s⁻¹. A53C U65G: the “self-cleavage kobs at 40 uM GlcN6P” value was 1.24e-05 ± 1.2e-05 s⁻¹. The same measure, in the same setting: under A53C C71G stands 3.66e-05 ± 2e-05 s⁻¹; under A36C G51A C71G, 5.84e-05 ± 3.3e-05 s⁻¹.

For U45G C70G, the “self-cleavage kobs at 40 uM GlcN6P” value worked out at 2.15e-05 ± 1.8e-05 s⁻¹. With A36U U69G C71A, the “self-cleavage kobs at 40 uM GlcN6P” value was 4.75e-05 ± 3.4e-05 s⁻¹. With G40C U46C, the “self-cleavage kobs at 40 uM GlcN6P” value was found to be 4.12e-05 ± 2.4e-05 s⁻¹. In the case of G44A A53G, the “self-cleavage kobs at 40 uM GlcN6P” value was found to be 2.01e-05 ± 1.8e-05 s⁻¹. Turning to C50G G60U, the “self-cleavage kobs at 40 uM GlcN6P” value turned out to be 0.000896 ± 0.00079 s⁻¹. On the same count and under the same terms, under C61U C68G stands 2.92e-05 ± 1.5e-05 s⁻¹. Take G35C G37A C68G: the “self-cleavage kobs at 40 uM GlcN6P” value came to 3.74e-05 ± 2.8e-05 s⁻¹. The same measure, in the same setting: with A48C the figure was under 1e-05 s⁻¹. Regarding U47A C67G, the “self-cleavage kobs at 40 uM GlcN6P” value came to 2.36e-05 ± 1.9e-05 s⁻¹.

G41C U54G: the “self-cleavage kobs at 40 uM GlcN6P” value stood at 2.21e-05 ± 1.6e-05 s⁻¹. In the case of G41U C67G C68A, the “self-cleavage kobs at 40 uM GlcN6P” value came to 5.83e-05 ± 3.1e-05 s⁻¹. Regarding C67U U69G, the “self-cleavage kobs at 40 uM GlcN6P” value was found to be 1.45e-05 ± 1.3e-05 s⁻¹. Consider G37A U45G, for which the “self-cleavage kobs at 40 uM GlcN6P” value was found to be 1.62e-05 ± 1.1e-05 s⁻¹. On to G40U G66C, for which the “self-cleavage kobs at 40 uM GlcN6P” value was determined as 2.08e-05 ± 1.8e-05 s⁻¹. On the same count and under the same terms, under U57A C67G stands 2.59e-05 ± 1.4e-05 s⁻¹; under G63U U69G, 1.85e-05 ± 1.8e-05 s⁻¹. As to G32U U69A, the “self-cleavage kobs at 40 uM GlcN6P” value is 2.74e-05 ± 1.8e-05 s⁻¹.

Take G41A C70A: the “self-cleavage kobs at 40 uM GlcN6P” value was 2e-05 ± 1e-05 s⁻¹. The same measure, in the same setting: under C50A C68A C70G stands 3.45e-05 ± 2.1e-05 s⁻¹; under U69G C70A, 2.21e-05 ± 1.4e-05 s⁻¹. As for U69G C70U, the “self-cleavage kobs at 40 uM GlcN6P” value worked out at 1.9e-05 ± 1.3e-05 s⁻¹. Regarding C61U C68G U69G, the “self-cleavage kobs at 40 uM GlcN6P” value worked out at 2.91e-05 ± 2.4e-05 s⁻¹. G35U A42U U45G U56G: the “self-cleavage kobs at 40 uM GlcN6P” value was 3.12e-05 ± 3.1e-05 s⁻¹.

As to U65A C68A, the “self-cleavage kobs at 40 uM GlcN6P” value came out at 2.43e-05 ± 1.3e-05 s⁻¹. In the case of A53U C70G C71G, the “self-cleavage kobs at 40 uM GlcN6P” value was 2.59e-05 ± 1.8e-05 s⁻¹.

Take C50G G66A: the “self-cleavage kobs at 40 uM GlcN6P” value was 3.26e-05 ± 2e-05 s⁻¹.

The variants in the next data set derive from B1. The data set is described as follows: self-cleavage kobs at 640 uM GlcN6P; higher = faster cleavage; RNA array. The settings on record: with glucosamine-6-phosphate. In outline:
as §1
As for C50G A53G, the “self-cleavage kobs at 640 uM GlcN6P” value was 0.000466 ± 0.00023 s⁻¹. For the variant C50G A53U, the “self-cleavage kobs at 640 uM GlcN6P” value is 3.02e-05 ± 2.1e-05 s⁻¹. On to G7A A12U, for which the “self-cleavage kobs at 640 uM GlcN6P” value was 2.23e-05 ± 1.4e-05 s⁻¹.

G7A A14C G37U G60A C67G: the “self-cleavage kobs at 640 uM GlcN6P” value was 2.86e-05 ± 2.1e-05 s⁻¹. C10A U46G C68G: the “self-cleavage kobs at 640 uM GlcN6P” value amounted to 4.9e-05 ± 3.1e-05 s⁻¹. For the variant C10U A12C A39U, the “self-cleavage kobs at 640 uM GlcN6P” value turned out to be 2.43e-05 ± 1.9e-05 s⁻¹. For the variant A6U G29U C71U, the “self-cleavage kobs at 640 uM GlcN6P” value was found to be 4.19e-05 ± 3.6e-05 s⁻¹. Turning to A52G C70U C71G, the “self-cleavage kobs at 640 uM GlcN6P” value is 5.29e-05 ± 2.8e-05 s⁻¹. Turning to G7U C10G C68G, the “self-cleavage kobs at 640 uM GlcN6P” value stood at 4.7e-05 ± 3.6e-05 s⁻¹. On to C11A C50U A52G C67G C68A, for which the “self-cleavage kobs at 640 uM GlcN6P” value was 2.82e-05 ± 2.2e-05 s⁻¹. For the variant C10G A53G U56A C68A, the “self-cleavage kobs at 640 uM GlcN6P” value stood at 2.23e-05 ± 2.1e-05 s⁻¹.

For the variant C10A C34A A53U U69G, the “self-cleavage kobs at 640 uM GlcN6P” value came to 6.12e-05 ± 4.1e-05 s⁻¹. As for A6U A36G A52G C70G, the “self-cleavage kobs at 640 uM GlcN6P” value amounted to 5.24e-05 ± 2.9e-05 s⁻¹. On the same count and under the same terms, under C10A C50A stands 2.01e-05 ± 1.9e-05 s⁻¹. Regarding A6U U31A U47G C50A A64G C68U, the “self-cleavage kobs at 640 uM GlcN6P” value is 2.66e-05 ± 2.6e-05 s⁻¹. On to C10A G59A C68G U69C, for which the “self-cleavage kobs at 640 uM GlcN6P” value worked out at 2.96e-05 ± 2.8e-05 s⁻¹.

Consider C8A A52C U65A C68G, for which the “self-cleavage kobs at 640 uM GlcN6P” value was found to be 3.4e-05 ± 2.1e-05 s⁻¹. A6G C11G U69G: the “self-cleavage kobs at 640 uM GlcN6P” value was determined as 4.5e-05 ± 3.1e-05 s⁻¹.

As for G7A C34U C70G, the “self-cleavage kobs at 640 uM GlcN6P” value worked out at 3.23e-05 ± 3.1e-05 s⁻¹. The same measure, in the same setting: with C10G A14U G29C U31G C71A the figure was 0.000281 ± 0.00019 s⁻¹; with G7U U30G U69A, 3.19e-05 ± 2.6e-05 s⁻¹. C10U G35U U57A U65G C68A: the “self-cleavage kobs at 640 uM GlcN6P” value was 0.000454 ± 0.00026 s⁻¹. For A6C G29A U57G U69G, the “self-cleavage kobs at 640 uM GlcN6P” value is 3.83e-05 ± 3e-05 s⁻¹. On the same count and under the same terms, under A6G C11G C68A stands 2.95e-05 ± 2.5e-05 s⁻¹; under C10U C70A, 1.93e-05 ± 1.5e-05 s⁻¹; under G9A C34G, 0.000997 ± 0.00096 s⁻¹. As for C67U U69G, the “self-cleavage kobs at 640 uM GlcN6P” value turned out to be 0.00161 ± 0.00095 s⁻¹. The same measure, in the same setting: under C8G C10A C50A C67A stands 0.00131 ± 0.00076 s⁻¹; under C10G A12G U47G U54C C68U, 2.38e-05 ± 2e-05 s⁻¹; under C10U G29U C61A C67G, 3.8e-05 ± 2.4e-05 s⁻¹.

For the variant C10U U55A, the “self-cleavage kobs at 640 uM GlcN6P” value turned out to be 1.78e-05 ± 1.7e-05 s⁻¹. Still for that read-out and setting: under C50G G66A stands 4.27e-05 ± 2.3e-05 s⁻¹; under G9A G32A A33U C67G C68U, 0.00185 ± 0.0012 s⁻¹; under C10A C70U, 0.000589 ± 0.00038 s⁻¹.

The variants in the next data set derive from B1. The data set is described as follows: self-cleavage kobs at 160 uM GlcN6P; higher = faster cleavage; RNA array. The settings on record: with glucosamine-6-phosphate. The method in brief:
as §1
For the variant C50G A53G, the “self-cleavage kobs at 160 uM GlcN6P” value was 0.000303 ± 0.00019 s⁻¹. On the same count and under the same terms, with G44U U55A the figure was 2.78e-05 ± 1.8e-05 s⁻¹. In the case of U57G A64U U69G, the “self-cleavage kobs at 160 uM GlcN6P” value was determined as 5.33e-05 ± 3e-05 s⁻¹. On the same count and under the same terms, with U57G C58G the figure was 5.61e-05 ± 2.9e-05 s⁻¹; with G41C U54G, 2.99e-05 ± 1.6e-05 s⁻¹; with C10U C70A, 1.93e-05 ± 1.4e-05 s⁻¹.

In the case of G40U G66C, the “self-cleavage kobs at 160 uM GlcN6P” value was determined as 4.27e-05 ± 2.2e-05 s⁻¹. Turning to G32U U69A, the “self-cleavage kobs at 160 uM GlcN6P” value was determined as 3.55e-05 ± 1.9e-05 s⁻¹. Consider C10A C70U, for which the “self-cleavage kobs at 160 uM GlcN6P” value amounted to 0.00017 ± 0.00013 s⁻¹.

The variants in the next data set derive from B1. The data set is described as follows: self-cleavage kobs at 10000 uM GlcN6P; higher = faster cleavage; RNA array. The settings on record: with glucosamine-6-phosphate. In outline: as §1
With C50G A53G, the “self-cleavage kobs at 10000 uM GlcN6P” value came out at 6.35e-05 ± 4.4e-05 s⁻¹. Regarding C10U A12C A39U, the “self-cleavage kobs at 10000 uM GlcN6P” value was 1.91e-05 ± 1.4e-05 s⁻¹. On the same count and under the same terms, under A36C G51A C71G stands 2.71e-05 ± 2.2e-05 s⁻¹. C61U C68G: the “self-cleavage kobs at 10000 uM GlcN6P” value came to 1.68e-05 ± 1.3e-05 s⁻¹. On the same count and under the same terms, under C67U U69G stands 1.26e-05 ± 1.1e-05 s⁻¹; under U69G C70A, 1.82e-05 ± 9.9e-06 s⁻¹; under C10A C70U, 1.69e-05 ± 1.1e-05 s⁻¹.

Variants of B1 are the subject of the next data set. The experiment in a line: self-cleavage kobs at 2500 uM GlcN6P; higher = faster cleavage; RNA array. The settings on record: with glucosamine-6-phosphate. In outline:
as §1
As for C50G A53U, the “self-cleavage kobs at 2500 uM GlcN6P” value worked out at 2.63e-05 ± 2.5e-05 s⁻¹.

For C10U A12C A39U, the “self-cleavage kobs at 2500 uM GlcN6P” value is 2.25e-05 ± 1.8e-05 s⁻¹. For the variant G7U C10G C68G, the “self-cleavage kobs at 2500 uM GlcN6P” value is 3.53e-05 ± 3.4e-05 s⁻¹. Still for that read-out and setting: under C10A C50A stands 2.71e-05 ± 2e-05 s⁻¹; under C10A G59A C68G U69C, 4.01e-05 ± 2.1e-05 s⁻¹. Take A6C G29A U57G U69G: the “self-cleavage kobs at 2500 uM GlcN6P” value worked out at 4.29e-05 ± 3.8e-05 s⁻¹. For G40U G66C, the “self-cleavage kobs at 2500 uM GlcN6P” value came to 0.000224 ± 0.00011 s⁻¹.

Turning to G63U U69G, the “self-cleavage kobs at 2500 uM GlcN6P” value was found to be 2.83e-05 ± 1.5e-05 s⁻¹. Regarding C50G G66A, the “self-cleavage kobs at 2500 uM GlcN6P” value stood at 4.29e-05 ± 2.4e-05 s⁻¹.
